Reference: article doi:10.1101/2022.12.06.519310
Results are given in words; binding and its absence hold for the method and conditions named. In cells and extracts the contact can be indirect. Some binding calls cover weakened binding; strength is not graded here.

The chains behind the UniProt entries cited, without tags or fusion partners.
UniProt Q15291: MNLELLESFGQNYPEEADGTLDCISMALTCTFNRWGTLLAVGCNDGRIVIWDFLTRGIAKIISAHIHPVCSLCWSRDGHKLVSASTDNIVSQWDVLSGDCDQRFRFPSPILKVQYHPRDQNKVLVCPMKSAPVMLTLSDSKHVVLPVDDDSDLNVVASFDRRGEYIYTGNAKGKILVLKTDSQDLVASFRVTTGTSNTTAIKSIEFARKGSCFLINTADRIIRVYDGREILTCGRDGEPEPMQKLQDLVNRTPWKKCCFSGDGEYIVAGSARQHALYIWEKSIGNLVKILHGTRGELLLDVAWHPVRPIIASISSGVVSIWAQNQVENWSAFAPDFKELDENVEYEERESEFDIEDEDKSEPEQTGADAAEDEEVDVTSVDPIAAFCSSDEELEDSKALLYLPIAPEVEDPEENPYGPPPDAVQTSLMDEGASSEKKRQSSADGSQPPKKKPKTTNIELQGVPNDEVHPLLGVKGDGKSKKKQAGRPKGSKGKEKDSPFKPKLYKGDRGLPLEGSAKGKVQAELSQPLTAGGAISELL
UniProt Q9UBL3: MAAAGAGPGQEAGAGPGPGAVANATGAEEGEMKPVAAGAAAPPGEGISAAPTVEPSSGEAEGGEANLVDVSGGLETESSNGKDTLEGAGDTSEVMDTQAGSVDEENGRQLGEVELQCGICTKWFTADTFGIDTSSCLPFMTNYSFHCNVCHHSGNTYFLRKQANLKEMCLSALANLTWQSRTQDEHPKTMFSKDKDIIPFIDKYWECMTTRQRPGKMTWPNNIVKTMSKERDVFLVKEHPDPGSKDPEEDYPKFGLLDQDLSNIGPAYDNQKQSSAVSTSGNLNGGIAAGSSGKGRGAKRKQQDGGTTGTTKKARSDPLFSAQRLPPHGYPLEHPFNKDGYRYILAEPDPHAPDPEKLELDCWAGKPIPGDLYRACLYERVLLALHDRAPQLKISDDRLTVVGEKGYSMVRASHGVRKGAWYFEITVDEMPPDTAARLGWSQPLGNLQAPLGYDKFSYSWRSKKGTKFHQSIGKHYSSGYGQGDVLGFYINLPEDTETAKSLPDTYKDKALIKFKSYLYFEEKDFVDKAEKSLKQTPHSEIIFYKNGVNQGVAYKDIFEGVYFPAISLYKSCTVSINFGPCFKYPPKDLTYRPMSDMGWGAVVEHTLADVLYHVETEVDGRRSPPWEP

Assays:
[1] = molecular target: T1, biotinylated H3 (1-10) Q5ser peptide; assay: pull-down
T1 sequence (peptide, serotonylated glutamine at 5 (Q5ser); biotin (position not stated)): ARTKQTARKS

[2] = molecular target: T2, biotinylated H3 (1-10) unmodified peptide; assay: pull-down
T2 sequence (peptide, biotin (position not stated)): ARTKQTARKS

binding [1] | binding [2] | Substance
binds | binds | RBBP5, endogenous in HeLa nuclear extract (from UniProt Q15291 1-538)
binds | binds | ASH2L, endogenous in HeLa nuclear extract (from UniProt Q9UBL3 1-628)
